Data on two molecules can be found in publication PMC7475253.

Test [1] has as its target T1, KNAT5 (KNOTTED1-LIKE HOMEOBOX5), yeast two-hybrid fusion (Arabidopsis thaliana) (UniProt P48002).
T1 sequence: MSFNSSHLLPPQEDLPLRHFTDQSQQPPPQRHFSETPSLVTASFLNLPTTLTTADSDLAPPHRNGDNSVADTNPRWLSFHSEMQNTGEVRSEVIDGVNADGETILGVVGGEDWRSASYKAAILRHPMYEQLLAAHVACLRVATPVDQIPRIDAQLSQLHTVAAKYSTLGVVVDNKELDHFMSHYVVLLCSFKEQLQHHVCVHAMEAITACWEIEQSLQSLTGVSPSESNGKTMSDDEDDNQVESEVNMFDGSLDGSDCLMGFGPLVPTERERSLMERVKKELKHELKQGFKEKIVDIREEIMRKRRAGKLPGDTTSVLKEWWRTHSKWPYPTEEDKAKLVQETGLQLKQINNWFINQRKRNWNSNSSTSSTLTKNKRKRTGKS
Briefly: two-hybrid; Matchmaker Gold system, BD and AD fusions co-transformed into Y2HGold yeast; growth on QDO (SD/-Ade/-His/-Leu/-Trp) and QDO/AbA/X-alpha-gal, recorded after 4 d at 30 °C.

Test [2] concerns the target T2, GST-KNAT5 (Arabidopsis thaliana) (UniProt P48002).
T2 sequence: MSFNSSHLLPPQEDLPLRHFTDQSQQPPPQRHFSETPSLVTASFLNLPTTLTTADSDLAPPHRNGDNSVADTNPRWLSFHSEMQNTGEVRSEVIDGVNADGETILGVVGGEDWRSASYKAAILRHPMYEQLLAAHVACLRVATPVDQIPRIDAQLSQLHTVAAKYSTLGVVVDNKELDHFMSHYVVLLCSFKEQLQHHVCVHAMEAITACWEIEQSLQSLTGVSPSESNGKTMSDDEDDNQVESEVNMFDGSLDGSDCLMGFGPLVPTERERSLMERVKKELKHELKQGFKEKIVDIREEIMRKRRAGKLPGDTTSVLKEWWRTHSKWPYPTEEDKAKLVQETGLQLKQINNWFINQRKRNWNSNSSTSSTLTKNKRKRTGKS
As to the kind of experiment: pull-down; GST-proteins held on GSH magnetic beads, incubated with His-proteins in lysis buffer (140 mM NaCl, 2.7 mM KCl, 10 mM Na2HPO4, 1.8 mM KH2PO4, pH 7.4, 1 mM PMSF) for 2 h at 4 °C; washes with 1.5% Triton X-100; immunoblot with anti-His and anti-GST; only the target purified.

Results are given in words; binding and its absence hold for the method and conditions named. For some assays here: In cells and extracts the contact can be indirect. Some binding calls cover weakened binding; strength is not graded here. Where a sequence is shown, tags or fusion partners need not be part of it.

B1: OFP1 (OVATE FAMILY PROTEIN1), yeast two-hybrid fusion (protein, UniProt Q9LZW2 1-270)
chain: MGNNYRFKLSELIPNAWFYKLRDMSKSKKKNLQSQPNSTTSKKKHHAVPTPTSTTPLSPRPPRRPSHSSKAPPSHPPRKSSGNRLRHRATVDSKSSTTSGDSTTTETGSFSPDFRSDQVLLPDESLTGSWHSPCSSKLSKTATFTPPPELELRPIITKTAATARKTAVNSPAGVRLRMRSPRISVSSSARRSGSSARRSRAVVKASVDPKRDFKESMEEMIAENKIRATKDLEELLACYLCLNSDEYHAIIINVFKQIWLDLNLPPPHSK
Consider B1, for which the binding entry in test [1] was “binds”.

B2: His-OFP1 (histidine-tagged OFP1) (protein, UniProt Q9LZW2 1-270)
chain: MGNNYRFKLSELIPNAWFYKLRDMSKSKKKNLQSQPNSTTSKKKHHAVPTPTSTTPLSPRPPRRPSHSSKAPPSHPPRKSSGNRLRHRATVDSKSSTTSGDSTTTETGSFSPDFRSDQVLLPDESLTGSWHSPCSSKLSKTATFTPPPELELRPIITKTAATARKTAVNSPAGVRLRMRSPRISVSSSARRSGSSARRSRAVVKASVDPKRDFKESMEEMIAENKIRATKDLEELLACYLCLNSDEYHAIIINVFKQIWLDLNLPPPHSK
In the case of B2, the binding result in test [2] is given as “binds”.
